According to paper PMC8198571:
No constants are given. Whether binding was seen depends on the method and setting. Binding seen in cells or lysates may run through a third protein. Some results given as binding are weak or reduced against the parent protein; the word gives no strength.

Protein sequences, listed by entry. Tags and fused reporters are not part of them.
UniProt P25071: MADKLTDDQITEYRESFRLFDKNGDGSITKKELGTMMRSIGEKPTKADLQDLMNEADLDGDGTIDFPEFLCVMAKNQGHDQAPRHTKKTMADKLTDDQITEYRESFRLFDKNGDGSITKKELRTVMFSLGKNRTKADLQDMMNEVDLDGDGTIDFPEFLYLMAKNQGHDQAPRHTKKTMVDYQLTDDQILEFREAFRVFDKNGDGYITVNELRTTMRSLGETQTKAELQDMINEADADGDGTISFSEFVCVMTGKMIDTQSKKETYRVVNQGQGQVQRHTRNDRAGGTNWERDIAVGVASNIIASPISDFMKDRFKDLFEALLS

Legend:
[1] = target: T1, MLO4 (full length), BiFC construct (Arabidopsis thaliana) (UniProt O23693); experiment: split reporter; BiFC, YFP signal; onion epidermal cells transformed with a gene gun; read after 16-24 hours by confocal microscopy
T1 sequence: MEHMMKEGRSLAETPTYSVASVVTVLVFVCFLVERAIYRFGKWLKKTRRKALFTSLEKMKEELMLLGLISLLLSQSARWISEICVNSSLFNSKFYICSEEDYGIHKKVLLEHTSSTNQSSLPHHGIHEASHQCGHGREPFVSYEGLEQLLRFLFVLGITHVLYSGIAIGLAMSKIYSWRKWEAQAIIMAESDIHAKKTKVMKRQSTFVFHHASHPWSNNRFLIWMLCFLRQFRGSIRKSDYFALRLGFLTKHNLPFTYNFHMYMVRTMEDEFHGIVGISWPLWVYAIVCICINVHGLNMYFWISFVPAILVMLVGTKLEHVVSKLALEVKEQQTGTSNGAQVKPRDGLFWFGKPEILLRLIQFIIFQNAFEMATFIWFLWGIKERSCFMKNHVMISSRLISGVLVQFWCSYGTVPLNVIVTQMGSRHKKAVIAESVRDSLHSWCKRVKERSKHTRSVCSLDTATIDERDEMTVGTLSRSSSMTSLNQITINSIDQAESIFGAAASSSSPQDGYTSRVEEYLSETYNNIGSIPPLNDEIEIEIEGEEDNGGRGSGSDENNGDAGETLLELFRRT

[2] = target: T2, MLO4 (full length), LCI construct (Arabidopsis thaliana) (UniProt O23693); experiment: split reporter; Luciferase Complementation Imaging (LCI); CML12 in pCAMBIA1300-nLUC, MLO4 in pCAMBIA1300-cLUC; tobacco leaves injected with A. tumefaciens GV3101; signal detected 3-6 days after infiltration
T2 sequence: T1 sequence

| binding [1] | binding [2] | Substance |
| --- | --- | --- |
| binds |  | CML12, BiFC construct (from UniProt P25071 1-324) |
|  | binds | CML12, LCI construct (from UniProt P25071 1-324) |
